PubChem BioAssay AID1259405 | NCATS | 2018
This is one part, drawn at random, of about 50,000 reagents. Over the whole deposit, about 4,000 (8%) are marked active. 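Mouse siRNA library applied to hamster cells; one well for each siRNA.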 Reagents against one gene are numbered here. Reagent sequences are not shown.

Test: 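Silenced genes that increase secreted GFP made by CHO cells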 (primary screen)
System: Chinese hamster CHO-K1 ovary cells with stable secreted eGFP expression
Reagents: single siRNA against mouse genes, 0.8 pmol siRNA per well (2 µl of 400 nM stock)
Time to read-out: 3 days
Detection: 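Per-well intracellular GFP measured by laser scanning cytometry, plus viability from ATP luminescence, each relative to plate median of non-targeting control wells, in %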
Scale: GFP, % of control: higher = more GFP per well, higher productivity; viability (ATP), % of control: higher = more viable cells (more ATP)
Call rule: 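Called active when intracellular GFP, relative to negative control, is at or above 120%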

no.	gene symbol	reagent no.	GFP, % of control	viability (ATP), % of control	activity call
1	Mettl26	1	66	94	inactive
2	Mettl26	2	80.1	79.1	inactive
3	Mettl26	3	188	81.5	active
4	Enpp3	1	57.1	47.9	inactive
5	Enpp3	2	84.1	32.4	inactive
6	Parp3	1	96.5	87.7	inactive
7	Parp3	2	84.6	68	inactive
8	Parp3	3	67.5	75.8	inactive
9	Marchf11	1	142	73.8	active
10	Marchf11	2	60.1	75.9	inactive
11	Marchf11	3	63.7	68	inactive
12	Crym	1	42.8	49.4	inactive
13	Crym	2	31.8	43.3	inactive
14	Crym	3	43.5	46.3	inactive
15	Bmx	1	110	93.1	inactive
16	Bmx	2	103	74.4	inactive
17	Bmx	3	82.3	70.5	inactive
18	Kap	1	84.6	68.5	inactive
19	Kap	2	104	88.1	inactive
20	Kap	3	84.4	64.8	inactive

A stretch of the results above, as a working copy:
no.	gene symbol	reagent no.	GFP, % of control	viability (ATP), % of control	activity call
17	Bmx	3	82.3	70.5	inactive
18	Kap	1	84.6	68.5	inactive

Next reagents:
no.	gene symbol	reagent no.	GFP, % of control	viability (ATP), % of control	activity call
21	Gmeb2	1	79.8	78.9	inactive
22	Gmeb2	2	95.7	82.3	inactive
23	Gmeb2	3	50.6	26.3	inactive
24	9830163H01Rik	1	128	53.6	active
25	9830163H01Rik	2	79.4	74.5	inactive
26	9830163H01Rik	3	78.6	76	inactive
27	Or10w1	1	65.4	61.5	inactive
28	Or10w1	2	104	116	inactive
29	Or10w1	3	95.7	84.8	inactive
30	Ap3m2	1	73.5	75.6	inactive
31	Ap3m2	2	52.3	83.9	inactive
32	Ap3m2	3	108	77.9	inactive
33	Tnmd	1	67.9	68.1	inactive
34	Tnmd	2	80.1	74.1	inactive
35	Tnmd	3	48.3	81.8	inactive
